Reference: patent publication US20030119772A1
Results are given in words; binding and its absence hold for the method and conditions named. Some results given as binding are weak or reduced against the parent protein; the word gives no strength.

Sequences of proteins named here, by UniProt entry; tags and fusion partners are left off. Residues count along the entry.
UniProt P70399, residues 1492-1969: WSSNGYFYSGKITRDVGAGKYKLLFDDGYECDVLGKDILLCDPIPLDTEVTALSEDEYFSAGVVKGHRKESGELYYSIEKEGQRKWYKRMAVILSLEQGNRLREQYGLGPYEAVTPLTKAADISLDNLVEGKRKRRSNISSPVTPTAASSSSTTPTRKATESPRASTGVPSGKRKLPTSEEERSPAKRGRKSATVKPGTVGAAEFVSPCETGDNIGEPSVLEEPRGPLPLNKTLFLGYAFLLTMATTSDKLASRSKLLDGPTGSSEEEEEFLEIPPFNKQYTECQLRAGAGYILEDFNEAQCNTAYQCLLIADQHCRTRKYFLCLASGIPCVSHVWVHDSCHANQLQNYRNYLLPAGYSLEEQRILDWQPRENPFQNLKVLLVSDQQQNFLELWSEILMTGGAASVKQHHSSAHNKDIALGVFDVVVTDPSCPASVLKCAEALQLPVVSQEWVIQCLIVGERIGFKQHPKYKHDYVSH

How the values were obtained:
[1] = target: Murine ZEB (cDNA 129-3240 nt) fused in frame with the GAL4 DNA-binding domain in pAS2-1 (murine); test: yeast two-hybrid screen in Y-190, verified on beta-galactosidase plates
[2] = target: Murine ZEB (cDNA 129-3240 nt) fused in frame with the GAL4 DNA-binding domain in pAS2-1 (murine); test: yeast two-hybrid screen
[3] = target: Murine ZEB (cDNA 129-3240 nt) fused in frame with the GAL4 DNA-binding domain in pAS2-1 (murine); test: yeast two-hybrid, growth on -LEU/-TRP/-HIS plates

Measured: binding

p53BP1 clone #43 (carboxyl-terminal fragment) fused to the GAL4 activation domain in pGAD10 (from UniProt P70399 1492-1969)
binds: all assays above
